One substance from article PMC12313235 can be followed below.

Amino acid sequences for entries named in this document (tags omitted).
UniProt O00487: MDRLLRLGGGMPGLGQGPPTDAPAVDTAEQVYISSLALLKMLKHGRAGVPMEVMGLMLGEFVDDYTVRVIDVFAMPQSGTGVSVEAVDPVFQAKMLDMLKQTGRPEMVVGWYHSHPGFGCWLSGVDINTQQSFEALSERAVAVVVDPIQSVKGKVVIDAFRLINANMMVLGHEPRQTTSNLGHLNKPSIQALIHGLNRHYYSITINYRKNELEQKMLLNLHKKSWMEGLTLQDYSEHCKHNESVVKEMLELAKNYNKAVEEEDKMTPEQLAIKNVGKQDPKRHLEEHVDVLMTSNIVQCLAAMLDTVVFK
UniProt Q16186: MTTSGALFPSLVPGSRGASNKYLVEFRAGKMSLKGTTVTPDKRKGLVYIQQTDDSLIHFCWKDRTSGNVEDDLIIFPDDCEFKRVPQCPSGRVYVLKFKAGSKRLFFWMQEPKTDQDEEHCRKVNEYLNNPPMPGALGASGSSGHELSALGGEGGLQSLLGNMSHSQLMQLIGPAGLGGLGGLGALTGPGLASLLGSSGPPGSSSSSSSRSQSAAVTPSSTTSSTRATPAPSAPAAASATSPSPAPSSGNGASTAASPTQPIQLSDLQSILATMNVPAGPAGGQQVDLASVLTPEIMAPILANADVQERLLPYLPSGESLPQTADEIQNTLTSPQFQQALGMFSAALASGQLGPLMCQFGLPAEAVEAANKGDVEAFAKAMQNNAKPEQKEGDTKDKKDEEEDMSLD

Results are given in words; binding and its absence hold for the method and conditions named. Binding seen in cells or lysates may run through a third protein. Some binding calls cover weakened binding; strength is not graded here.

This assay concerns the target Rpn11 with a purification tag at the C-terminus (human) (UniProt O00487). The assay is described as follows: pull-down; 26S proteasome purified from HEK293 cells by the purification tag at the C-terminus of Rpn11; Western blot of Rpn1, Rpn10 and Rpn13 in the preparation. (A western blot detects proteins with antibodies after separation by electrophoresis.)

Take Rpn13 (from UniProt Q16186 1-407): the binding result is given as “binds”.
